This note sets out measurements from PubChem BioAssay AID188 (DTP/NCI, 2004).

This assay deals with CD2F1 mice, nontumored, toxicity/survival. Kind of assay: NCI In Vivo Anticancer Drug Screen. Data for tumor model Nontumored Animals (Toxicity Test) in CD2F1 (CDF1) mice. The note with it: schedule: Q01DX009 (ip), vehicle: Klucel (hydroxypropylcellulose) (HPC).

Values are animals surviving of animals treated; these mice carried no tumour. Counts of survivors are from the toxicity check (mostly the fifth day) where no day follows; animals may have died later. Schedules are NCI's codes, taken here to give the interval after Q, in days (D) or hours (H), and the number of doses after X.

With `CN(C)N=Nc1ccc(C(N)=O)cc1`, the survivor count is on record as 10 of 10 (dose: 59.0 mg/kg/injection); 10 of 10 (dose: 89.0 mg/kg/injection); 10 of 10 (dose: 133.0 mg/kg/injection); 6 of 10 (dose: 200.0 mg/kg/injection); 0 of 10 (dose: 300.0 mg/kg/injection).
